Experimental data as given in PubChem BioAssay AID687031 (Broad Institute, 2013).
Screen size: about 1,400 compounds; about 50 (4%) were called active.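 The calls were made as follows: active = fitted curve reaches 30% CPE protection at or below the top valid dose, with every test run called active; inconclusive = test runs disagree, some active and some not; inactive = every test run inactive, including effects in the wrong direction.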 Some of the results follow. Results with a measured potency or affinity are listed apart.

test: antiviral rescue of DENV2-infected BHK-21 cells – cell-based, ATP luminescence, cherry-pick, dose response (AID 687031); settings: BHK-21 DENV2 CPE protection, 5 d; at 19.5 µM (top of the series) unless noted;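 also: 0% = infected DMSO wells and 100% = uninfected cell wells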

SMILES	CPE protection (higher = active)
CC(Oc1ccccc1Cl)C(=O)N1CCOCC1 (centres undefined)	inactive: 12.7%
COc1ccc(C(CNC(=O)CCNC(=O)c2ccc(Br)cc2)N2CCOCC2)cc1 (centres undefined)	inactive: 10.9%
O=C(c1cc(C2CC2)on1)N1CCCC(N2CCN(c3cccc(C(F)(F)F)c3)CC2)C1 (centres undefined)	inactive: 8.43%
CCOC(=O)CC1(C)Sc2ccccc2N1S(=O)(=O)c1ccc(C)cc1 (centres undefined)	inactive: 5.54%
O=C(O)C1CCCCC1C(=O)N1CCN(S(=O)(=O)c2ccc(F)cc2)CC1 (centres undefined)	inactive: -12.7%
CCCCNC(=O)C1(C)CCN1C(=O)c1cncc(Br)c1 (centres undefined)	inactive: -12.5%
CCOC(=O)C1=C(CS(=O)(=O)c2ccc(C)cc2)NC(=O)NC1c1cc(OC)c(O)c(OC)c1 (centres undefined)	inactive: 2.77%
Cc1[nH]c2ccccc2c1CC(=O)Nc1ccc(N(C)c2cccnc2)c(-c2ccc(F)c(F)c2)c1	inactive: -18.9%
C[C@@H]1CCCCO[C@H](CN(C)Cc2ccc(Cl)c(Cl)c2)[C@H](C)CN([C@@H](C)CO)C(=O)c2cc(NC(=O)c3ccccc3)ccc2O1	inactive: -6.71% [at 21 µM]
C[C@H](CO)N1C[C@H](C)[C@H](CN(C)Cc2ccccc2)Oc2c(NS(=O)(=O)c3ccc(F)cc3)cccc2C1=O	inactive: -7.37%
COc1ccccc1CN(C)C(=O)c1cccc(S(=O)(=O)N2CCCc3ccccc32)c1	inactive: 20.4%
Cc1ccc(C(C)C)c(OCCNC(=O)c2ccccc2O)c1	inactive: -16.5%
O=C(OCC(=O)N1CCOCC1)c1cc(=O)[nH]c2ccccc12	inactive: 17.9%
Cc1ccc(NC(=O)c2cc(-c3cc(Cl)ccc3C)n[nH]2)cc1NS(C)(=O)=O	inactive: -8.63% [at 10 µM]
Cn1cnc(S(=O)(=O)N2C[C@@H](O)COC[C@@H]3O[C@@H](CC(=O)NC4CCCC4)CC[C@H]32)c1	inactive: -14%
CC(C)[C@H](NC(=O)C1CC1)C(=O)N1CCC[C@H]1C(=O)NCCc1ccccc1Cl	inactive: -0.264%
C[C@@H]1CN([C@@H](C)CO)C(=O)c2cc(NC(=O)Nc3ccc(C(F)(F)F)cc3)ccc2O[C@@H]1CN(C)C(=O)NC1CCCCC1	inactive: 8.46% [at 21 µM]
CC(C)CCNC(=O)C1CC(c2ccccc2C(F)(F)F)=NO1 (centres undefined)	inactive: 10.9%
Cc1ccc2c(c1)N(CCCC(=O)NCc1ccc3c(c1)OCO3)C(=O)CO2	inactive: 11.7%
Cc1ccccc1NC(=O)c1ccc(S(=O)(=O)N(C)C)cc1	inactive: -3.98%

SMILES	CPE protection (higher = active)
N#C[C@H]1[C@H](c2ccc(C#CC3CCCCC3)cc2)[C@@H](CO)N1C(=O)Cc1ccccn1	inactive: -17.6%
COCC#Cc1ccc2c(c1)O[C@@H](CN(C)C(=O)Nc1ccccc1F)[C@H](C)CN([C@@H](C)CO)S2(=O)=O	inactive: -4.23%
CCOC(=O)CNC(=O)N(C)[C@H]1C[C@H]2c3[nH]c4ccccc4c3CCN2C(=O)[C@H]1[C@H](C)O	inactive: 5.48%
Cc1ccc(CCN2CC(C(=O)NCCc3ccccc3)CC2=O)cc1 (centres undefined)	inactive: -17.8%
ClCCCc1cn(C[C@H]2CC[C@@H]([C@@H]3CC[C@H](Cn4cc(CCCCl)nn4)O3)O2)nn1	inactive: -9.65%
COc1ccc(S(=O)(=O)N(C)C[C@@H]2OCCCC[C@H](C)Oc3ccc(NS(=O)(=O)c4c(C)noc4C)cc3C(=O)N([C@H](C)CO)C[C@H]2C)cc1	inactive: -2.45% [at 21 µM]
CCC(C)CN1C(=O)CSCC1(C)C(=O)Nc1ccc2c(c1)OCCO2 (centres undefined)	inactive: 14.8%
CC(=O)Nc1cccc(C(=O)OC(C)C(=O)NC(=O)NC2CCCCC2)c1 (centres undefined)	inactive: -3.28%
COc1ccc(CC(=O)NC2CCCCCC2)c(OC)c1	inactive: 2.58%
C[C@H](NC(=O)c1ncn(Cc2ccccc2)c1C(=O)N[C@@H](C)c1ccccc1)c1ccccc1	inactive: -10.4%
CC(C)c1ccc(Nc2ncc3c(n2)CCN(C(=O)Nc2ccc(F)c(Cl)c2)C3)cc1	inactive: -25%
CCCn1c(=N)n(CC(O)COc2ccc(C)cc2)c2ccccc21 (centres undefined)	inactive: -0.84%
CC1=NCCN1CCNC(=O)Nc1ccc(C(C)(C)C)cc1	inactive: 4.23%
COc1cc(C(=S)N2CCCC2)ccc1OCc1ccc(C)cc1	inactive: 4.2%
CCOc1ccc(N(CC(=O)Nc2cccc(C)c2)S(C)(=O)=O)cc1	inactive: 29%
O=C(CN1CCN(S(=O)(=O)c2ccccc2F)CC1)NC1CCCC1	inactive: -5.6%
O=C(C[C@@H]1CC[C@@H]2[C@H](COC[C@H](O)CN2CC2CCOCC2)O1)N1CCOCC1	inactive: 0.487%
Clc1cc(Br)ccc1OCCOCCN1CCCC1	inactive: 15.6%
Cc1ccc(OCCOCCN2CCCC2)c(Br)c1	inactive: 9.61%

As entered above.
Under CPE protection (higher = active), Cc1ccc(CCN2CC(C(=O)NCCc3ccccc3)CC2=O)cc1 (centres undefined) is listed with inactive: -17.8%
Under CPE protection (higher = active), O=C(C[C@@H]1CC[C@@H]2[C@H](COC[C@H](O)CN2CC2CCOCC2)O1)N1CCOCC1 is listed with inactive: 0.487%
